According to patent publication US8937072B2, “Substituted cyanoaniline compounds, preparation and use thereof” (Sinochem Corporation, priority 2011, dated 2015):
Where two headings read alike, the source gives them in different places. Some results were stated once for a whole list of compounds, not compound by compound.

How the values were obtained:
[1] = system: wheat powdery mildew; test: Protectant activity in vivo (whole plant) against wheat powdery mildew
Protocol: (§1) The method is as followed: The whole plant is used in this test. The compound is dissolved in a proper solvent to get mother solution. The proper solvent is selected from acetone, methanol, DMF and so on according to their dissolving capability to the sample. The volume rate of solvent and testing solution (v/v) is equal to or less than 5%. The mother solution is diluted with water containing 0.1% tween-80 to get the testing solution whose concentration is designed. The testing solution is sprayed to the host plant by a special plant sprayer. The plant is inoculated with fungus after 24 hours. According to the infecting characteristic of fungus, the plant is stored in a humidity chamber and then transferred into greenhouse after infection is finished. And the other plants are placed in greenhouse directly. The activity of compound is obtained by eyeballing after 7 days in common.

[2] = system: rice blast; type: cell-based; details: in vitro
[3] = system: corn rust; test: Protectant activity in vivo (whole plant) against corn rust
Protocol: as §1

[4] = system: cucumber gray mold; test: Activity in vitro (96-well, High Through Put): inhibition rate against cucumber gray mold; type: cell-based
In short: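 Compound in acetone, methanol or DMF was combined with pathogen suspension under sterile conditions and held in a constant-temperature box. After 24 hours germination or growth was scored by eye against an untreated control to give the inhibition rate.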

[5] = system: cucumber downy mildew; test: Protectant activity in vivo (whole plant) against cucumber downy mildew
In short: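 Compound stock in organic solvent (≤5% v/v) diluted in water with 0.1% Tween-80 and sprayed onto whole host plants. Fungal inoculation 24 h later; humidity chamber then greenhouse as the pathogen requires. Activity rated visually, usually after 7 days.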

Row | SMILES | protectant activity against wheat powdery mildew in vivo ([1]; dose 25 mg/L) | inhibition rate against rice blast ([2]; dose 0.9 mg/L) [%] | inhibition rate against rice blast ([2]; dose 2.8 mg/L) [%] | inhibition rate against rice blast ([2]; dose 8.3 mg/L) [%] | inhibition rate against rice blast ([2]; dose 25 mg/L) [%] | protectant activity against corn rust in vivo ([3]; dose 100 mg/L) | protectant activity against corn rust in vivo ([3]; dose 400 mg/L) | inhibition rate against cucumber gray mold ([4]; dose 25 mg/L) [%] | protectant activity against wheat powdery mildew in vivo ([1]; dose 100 mg/L) | inhibition rate against rice blast ([2]; dose 0.3 mg/L) [%] | protectant activity against corn rust in vivo ([3]; dose 6.25 mg/L) | protectant activity against corn rust in vivo ([3]; dose 25 mg/L) | inhibition rate against cucumber gray mold ([4]; dose 2.8 mg/L) [%] | inhibition rate against cucumber gray mold ([4]; dose 8.3 mg/L) [%] | protectant activity against cucumber downy mildew in vivo ([5]; dose 25 mg/L) | inhibition rate against cucumber gray mold ([4]; dose 0.3 mg/L) [%] | inhibition rate against cucumber gray mold ([4]; dose 0.9 mg/L) [%] | protectant activity against cucumber downy mildew in vivo ([5]; dose 100 mg/L) | protectant activity against cucumber downy mildew in vivo ([5]; dose 50 mg/L) | protectant activity against cucumber downy mildew in vivo ([5]; dose 400 mg/L)
1 | N#Cc1cc([N+](=O)[O-])cc(Br)c1Nc1c(Cl)c(Cl)c(C#N)c(C#N)c1Cl [Compound A-42] | no less than 75% | 100 | 100 | 100 | 100 | no less than 80% | no less than 95% | 80 |  |  |  |  |  |  |  |  |  |  |  | 
2 | N#Cc1c(Cl)c(Cl)c(Nc2cc(Cl)c(C(F)(F)F)cc2Cl)c(C#N)c1Cl [Compound B-52] |  | 100 | 100 | 100 | 100 |  |  | 100 | more than 98% | 100 | no less than 70% | no less than 98% | 100 | 100 |  |  |  |  |  | 
3 | N#Cc1c(Cl)c(Cl)c(Nc2ccc([N+](=O)[O-])cc2Cl)c(Cl)c1C#N [Compound A-15] |  | 100 | 100 | 100 | 100 | no less than 80% |  | 100 |  | 100 |  |  | 100 | 100 | no less than 90% | 100 | 100 |  |  | 
4 | N#Cc1cc([N+](=O)[O-])cc(Br)c1Nc1c(F)c(C#N)c(F)c(F)c1C#N [Compound C-97] |  |  |  |  | 100 | no less than 90% | no less than 95% | 100 |  |  |  |  |  |  |  |  |  | more than 95% |  | 
5 | N#Cc1c(Cl)c(Cl)c(Nc2c(Cl)cc([N+](=O)[O-])cc2Cl)c(Cl)c1C#N [Compound A-44] |  | 100 | 100 | 100 | 100 |  | no less than 95% | 100 |  | 100 |  |  | 100 | 100 | no less than 90% |  | 100 |  | more than 95% | 
6 | N#Cc1c(F)c(F)c(C#N)c(Nc2ccc(Cl)c(C(F)(F)F)c2)c1F [Compound C-91] | no less than 75% |  |  |  |  |  |  |  |  |  |  |  |  |  |  |  |  |  |  | 
7 | N#Cc1c(Cl)c(Cl)c(Nc2c(F)cccc2F)c(C#N)c1Cl [Compound B-15] |  |  |  |  | 100 |  | no less than 95% | 80 |  |  |  |  |  |  |  |  | 100 |  |  | more than 90%
8 | N#Cc1c(Cl)c(Cl)c(C#N)c(Nc2c(Cl)cc(C(F)(F)F)cc2Cl)c1Cl [Compound C-50] | no less than 75% | 100 | 100 | 100 | 100 |  |  | 100 | more than 98% | 100 |  |  | 80 | 100 |  |  |  |  |  | 
9 | N#Cc1c(Cl)c(Cl)c(Nc2c(Cl)cc([N+](=O)[O-])cc2Cl)c(C#N)c1Cl [Compound B-54] |  | 100 | 80 | 100 | 100 | no less than 80% |  | 100 |  |  |  | no less than 80% | 100 | 100 |  |  | 100 |  |  | 
10 | COc1c(Cl)c(Nc2c(Cl)cc([N+](=O)[O-])cc2Cl)c(C#N)c(Cl)c1C#N [Compound B-74] |  | 100 | 100 | 100 | 100 | no less than 80% |  | 100 |  | 100 |  |  | 100 | 100 |  |  |  |  |  | 
